Experimental data taken from patent US20150315256A1.
Results are given in words; binding and its absence hold for the method and conditions named. Some results given as binding are weak or reduced against the parent protein; the word gives no strength.

Chains of the proteins cited; added tags and fusions are not shown.
UniProt P25090: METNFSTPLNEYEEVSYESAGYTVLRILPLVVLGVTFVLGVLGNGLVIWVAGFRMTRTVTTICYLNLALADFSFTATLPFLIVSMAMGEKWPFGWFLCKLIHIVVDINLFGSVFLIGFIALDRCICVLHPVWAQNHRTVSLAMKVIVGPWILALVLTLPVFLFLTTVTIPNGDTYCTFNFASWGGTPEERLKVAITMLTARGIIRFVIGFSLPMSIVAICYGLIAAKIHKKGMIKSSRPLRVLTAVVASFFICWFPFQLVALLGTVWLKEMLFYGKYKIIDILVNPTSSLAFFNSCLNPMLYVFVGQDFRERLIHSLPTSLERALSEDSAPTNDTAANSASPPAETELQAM
UniProt P21462: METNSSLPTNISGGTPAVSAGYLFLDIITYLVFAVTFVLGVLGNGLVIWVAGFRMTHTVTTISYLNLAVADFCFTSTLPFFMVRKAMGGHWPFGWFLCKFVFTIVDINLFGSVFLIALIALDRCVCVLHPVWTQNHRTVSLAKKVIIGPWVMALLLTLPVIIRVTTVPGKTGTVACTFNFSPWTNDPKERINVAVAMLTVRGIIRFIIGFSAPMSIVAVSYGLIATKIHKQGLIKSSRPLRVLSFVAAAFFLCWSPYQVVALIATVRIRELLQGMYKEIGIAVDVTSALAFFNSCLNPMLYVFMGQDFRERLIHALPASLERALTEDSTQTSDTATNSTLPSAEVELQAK

What was measured:
FPR2 receptor [1] = biological target: FPR2 receptor (UniProt P25090); assay: binding affinity assay, method not described
FPR1 = FPR1 (UniProt P21462); assay: affinity comparison, method not described
FPR2 receptor [2] = biological target: FPR2 receptor (UniProt P25090); assay: affinity comparison, method not described

AMVSEFLKQAWFIENEEQEYVQTVKSSKGGPGSAVSPYPTFNPSSDVAAG [UGP021, ANXA1(2-50) Gly51-OH]
binding (FPR2 receptor [1]): binds

AMVSEFLKQAWFIENEEQEYVQTVKSSKGGPGSAVSPYPTFNPSSDVAA (amidated at its C-terminus) [UGP022, ANXA1(2-50)-NH2]
binding (FPR2 receptor [1]): binds

AMVSEFLKQAWFIENEEQEYVQTLKSSKGGPGSAVSPYPTFNPSSDV (amidated at its C-terminus) [UGP025, Leu25-ANXA1(2-48)-NH2]
binding (FPR1): binds
binding (FPR2 receptor [2]): binds

AMVSEFLKQAWFIENEEQEYVQTLKSSKGGPGSAVSPYPTFNPSSDVAA (amidated at its C-terminus) [UGP026, Leu25-ANXA1(2-50)-NH2]
binding (FPR1): binds
binding (FPR2 receptor [2]): binds
